Weaker means in comparison with the reference protein, sequence or condition of that experiment. Where a protein sequence is shown, tags need not be part of it.
Legend:
ETS1 (ETS1ΔN280) [1] = target: T1, ETS1 (ETS1ΔN280) (UniProt P27577); test: footprinting (UV photofootprint, T4 endonuclease V); details: 25 mM Tris-Cl pH 7.9, 10% glycerol, 6 mM MgCl2, 0.5 mM EDTA, 60 mM KCl, 0.5 mM DTT, 200 ug/ml BSA, 40 ul, 40 min on ice, 8% native PAGE, recombinant protein
T1 sequence (looked up, limits assumed): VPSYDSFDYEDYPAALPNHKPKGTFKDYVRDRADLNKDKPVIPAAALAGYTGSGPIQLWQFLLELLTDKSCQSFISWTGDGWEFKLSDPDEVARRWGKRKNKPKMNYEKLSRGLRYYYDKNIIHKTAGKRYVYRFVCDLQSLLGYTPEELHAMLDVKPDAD

ETS1 (ETS1ΔN280) [2] = target: T1, ETS1 (ETS1ΔN280); test: EMSA; details: 25 mM Tris-Cl pH 7.9, 10% glycerol, 6 mM MgCl2, 0.5 mM EDTA, 60 mM KCl, 0.5 mM DTT, 200 ug/ml BSA, 40 ul, 40 min on ice, 8% native PAGE, recombinant protein

| Sequence | binding result (ETS1 (ETS1ΔN280) [1]; CPD induction at motif-2 (sites #2, #3) abolished, 5'-biotin on S20, label: 5'-32P on S19) | binding result (ETS1 (ETS1ΔN280) [2]; shift pattern altered at higher ETS1, low-affinity motif-2 lost, motif-1 intact, 5'-biotin on S20, label: 5'-32P on S19) | binding result (ETS1 (ETS1ΔN280) [1]; CPD induction at motif-1 (site #1) abolished, 5'-biotin on S18, label: 5'-32P on S17) | binding result (ETS1 (ETS1ΔN280) [2]; significantly reduced binding at low ETS1, 5'-biotin on S18, label: 5'-32P on S17) |
| --- | --- | --- | --- | --- |
| CTCGACTTCCGGTTCACCCAGCATTTGATCTTCCCTGTT (double strand) [SDHD-mt2] | binds more weakly | binds more weakly | – | – |
| CTCGACTTGAGGTTCACCCAGCATTTCCTCTTCCCTGTT (double strand) [SDHD-mt1] | – | – | binds more weakly | binds more weakly |
